Assay results reported in PMC12847938.
Results are given in words; binding and its absence hold for the method and conditions named. Binding seen in cells or lysates may run through a third protein. Here binding means that the protein was enriched with, or labelled near, the bait; the list need not be complete.

Chains of the proteins cited; added tags and fusions are not shown.
UniProt P06733: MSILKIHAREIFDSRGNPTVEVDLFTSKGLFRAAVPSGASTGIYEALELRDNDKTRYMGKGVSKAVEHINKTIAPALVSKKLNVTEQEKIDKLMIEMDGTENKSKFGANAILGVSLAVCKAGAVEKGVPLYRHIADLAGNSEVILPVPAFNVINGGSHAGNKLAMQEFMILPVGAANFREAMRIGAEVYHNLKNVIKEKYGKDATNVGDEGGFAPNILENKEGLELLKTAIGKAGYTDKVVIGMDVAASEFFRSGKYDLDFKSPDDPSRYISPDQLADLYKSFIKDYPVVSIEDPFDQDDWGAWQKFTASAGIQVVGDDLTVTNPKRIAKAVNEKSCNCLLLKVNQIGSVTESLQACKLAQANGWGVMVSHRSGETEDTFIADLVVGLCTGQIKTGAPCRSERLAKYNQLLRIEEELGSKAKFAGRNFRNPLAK
UniProt P31350: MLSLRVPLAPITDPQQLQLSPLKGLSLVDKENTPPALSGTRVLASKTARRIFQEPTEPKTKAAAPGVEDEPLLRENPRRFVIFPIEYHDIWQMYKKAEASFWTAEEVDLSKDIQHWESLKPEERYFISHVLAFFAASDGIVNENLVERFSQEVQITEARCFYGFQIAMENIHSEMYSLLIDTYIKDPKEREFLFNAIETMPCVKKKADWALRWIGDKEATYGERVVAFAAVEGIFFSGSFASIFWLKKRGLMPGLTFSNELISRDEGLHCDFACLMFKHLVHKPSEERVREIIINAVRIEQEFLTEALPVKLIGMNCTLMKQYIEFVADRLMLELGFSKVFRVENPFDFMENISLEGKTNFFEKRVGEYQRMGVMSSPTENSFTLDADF

Target: enolase-1 (ENO1), endogenous in PANC-1 cells (human (endogenous in PANC-1)) (UniProt P06733)
Assay: affinity purification with mass spectrometry; immunoprecipitation of ENO1 from PANC-1 whole-cell lysates (NP40 lysis buffer, Protein A + G magnetic beads), IgG precipitation as negative control, silver staining and MS

binding: binds
Substance: Ribonucleotide reductase M2 subunit (RRM2), endogenous in PANC-1 cells (from UniProt P31350 1-389)
